Data: publication PMC5237262
These are yes or no findings as the source states them, for the method shown. In cells and extracts the contact can be indirect. Some entries that bind do so weakly or less than the wild type. Sequences can lack the tags named with a protein.

Chains of the proteins cited; added tags and fusions are not shown. Lines headed by an entry give the natural chain unless they say otherwise; changes in a name come on top. A line that says so, or that is headed by a name, gives the form on record, which may keep a tag or linker.
heterogeneous nuclear ribonucleoprotein A2 (hnRNPA2) (P22626-2, form named): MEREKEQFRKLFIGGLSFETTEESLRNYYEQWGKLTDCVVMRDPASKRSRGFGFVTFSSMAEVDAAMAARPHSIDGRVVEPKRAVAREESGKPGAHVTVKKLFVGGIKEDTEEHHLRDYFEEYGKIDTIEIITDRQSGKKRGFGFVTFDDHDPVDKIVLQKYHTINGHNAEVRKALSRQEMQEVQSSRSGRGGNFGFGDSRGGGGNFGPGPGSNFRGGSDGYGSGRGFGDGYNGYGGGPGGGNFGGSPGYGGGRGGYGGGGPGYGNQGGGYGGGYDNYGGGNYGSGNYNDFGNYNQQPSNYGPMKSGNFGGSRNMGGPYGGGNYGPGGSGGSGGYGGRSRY

Molecular target: T1, NIMA (never in mitosis gene A)-related kinase 2 (NEK2), tagged with HA and 3xFLAG (human) (UniProt P51955)
T1 sequence: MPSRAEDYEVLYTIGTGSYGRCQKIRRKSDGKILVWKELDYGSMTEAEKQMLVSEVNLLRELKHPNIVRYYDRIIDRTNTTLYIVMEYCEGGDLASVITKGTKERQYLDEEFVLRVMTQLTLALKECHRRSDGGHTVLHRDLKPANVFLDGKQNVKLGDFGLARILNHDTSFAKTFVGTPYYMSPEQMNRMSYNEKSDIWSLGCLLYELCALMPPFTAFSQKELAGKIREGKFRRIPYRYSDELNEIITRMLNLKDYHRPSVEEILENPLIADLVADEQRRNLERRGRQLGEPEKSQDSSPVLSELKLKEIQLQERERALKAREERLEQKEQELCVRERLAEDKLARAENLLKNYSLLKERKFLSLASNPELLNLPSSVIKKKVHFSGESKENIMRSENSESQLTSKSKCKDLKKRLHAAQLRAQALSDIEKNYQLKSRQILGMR
Assay: co-IP; lysate of NEK2 overexpressing ARP1 cells (IP lysis buffer), HA antibody or control IgG overnight at 4 °C, protein A Dynabeads 2 h at 4 °C, three washes with TBST, Western blotting

With “heterogeneous nuclear ribonucleoprotein A2 (hnRNPA2) (from UniProt P22626-2 1-341)” the binding was “binds”.
